Test results as given in US20230054860A1.
These are yes or no findings as the source states them, for the method shown. In cells and extracts the contact can be indirect. Some entries that bind do so weakly or less than the wild type.

Chains of the proteins cited; added tags and fusions are not shown.
UniProt Q9H7D7: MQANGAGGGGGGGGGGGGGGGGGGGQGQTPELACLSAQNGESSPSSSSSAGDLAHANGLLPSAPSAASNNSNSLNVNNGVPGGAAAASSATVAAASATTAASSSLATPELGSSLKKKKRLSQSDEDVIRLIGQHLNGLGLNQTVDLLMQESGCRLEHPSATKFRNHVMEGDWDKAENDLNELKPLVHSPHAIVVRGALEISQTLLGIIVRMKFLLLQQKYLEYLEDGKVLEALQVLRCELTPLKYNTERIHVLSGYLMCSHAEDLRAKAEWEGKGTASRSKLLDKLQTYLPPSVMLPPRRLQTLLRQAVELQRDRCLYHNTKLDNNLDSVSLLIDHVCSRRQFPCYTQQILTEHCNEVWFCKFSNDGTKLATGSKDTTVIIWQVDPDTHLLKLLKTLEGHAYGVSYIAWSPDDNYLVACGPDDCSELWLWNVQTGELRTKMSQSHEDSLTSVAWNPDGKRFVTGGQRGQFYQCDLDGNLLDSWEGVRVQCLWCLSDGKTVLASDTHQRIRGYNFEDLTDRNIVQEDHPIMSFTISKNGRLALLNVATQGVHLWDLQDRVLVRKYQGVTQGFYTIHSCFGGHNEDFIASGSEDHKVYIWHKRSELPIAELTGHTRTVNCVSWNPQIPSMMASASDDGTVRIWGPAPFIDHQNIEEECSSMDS

How the values were obtained:
[1] = target: WDR26 (endogenous) (UniProt Q9H7D7); experiment: co-immunoprecipitation, western blot (FIG. 11b)
[2] = target: WDR26 (endogenous) (UniProt Q9H7D7); experiment: co-immunoprecipitation of endogenous proteins, western blot, MCF10A and CA1D cells

binding [1]: binds | binding [2]: binds
B1: NOLC1 (also known as Nopp140) (protein, human, UniProt Q14978 1-699, looked up)
chain: MADAGIRRVVPSDLYPLVLGFLRDNQLSEVANKFAKATGATQQDANASSLLDIYSFWLKSAKVPERKLQANGPVAKKAKKKASSSDSEDSSEEEEEVQGPPAKKAAVPAKRVGLPPGKAAAKASESSSSEESSDDDDEEDQKKQPVQKGVKPQAKAAKAPPKKAKSSDSDSDSSSEDEPPKNQKPKITPVTVKAQTKAPPKPARAAPKIANGKAASSSSSSSSSSSSDDSEEEKAAATPKKTVPKKQVVAKAPVKAATTPTRKSSSSEDSSSDEEEEQKKPMKNKPGPYSSVPPPSAPPPKKSLGTQPPKKAVEKQQPVESSEDSSDESDSSSEEEKKPPTKAVVSKATTKPPPAKKAAESSSDSSDSDSSEDDEAPSKPAGTTKNSSNKPAVTTKSPAVKPAAAPKQPVGGGQKLLTRKADSSSSEEESSSSEEEKTKKMVATTKPKATAKAALSLPAKQAPQGSRDSSSDSDSSSSEEEEEKTSKSAVKKKPQKVAGGAAPSKPASAKKGKAESSNSSSSDDSSEEEEEKLKGKGSPRPQAPKANGTSALTAQNGKAAKNSEEEEEEKKKAAVVVSKSGSLKKRKQNEAAKEAETPQAKKIKLQTPNTFPKRKKGEKRASSPFRRVREEEIEVDSRVADNSFDAKRGAAGDWGERANQVLKFTKGKSFRHEKTKKKRGSYRGGSISVQVNSIKFDSE
